This passage reports binding results from article PMC10709431.

Sequences of proteins named here, by UniProt entry; tags and fusion partners are left off.
UniProt Q13131: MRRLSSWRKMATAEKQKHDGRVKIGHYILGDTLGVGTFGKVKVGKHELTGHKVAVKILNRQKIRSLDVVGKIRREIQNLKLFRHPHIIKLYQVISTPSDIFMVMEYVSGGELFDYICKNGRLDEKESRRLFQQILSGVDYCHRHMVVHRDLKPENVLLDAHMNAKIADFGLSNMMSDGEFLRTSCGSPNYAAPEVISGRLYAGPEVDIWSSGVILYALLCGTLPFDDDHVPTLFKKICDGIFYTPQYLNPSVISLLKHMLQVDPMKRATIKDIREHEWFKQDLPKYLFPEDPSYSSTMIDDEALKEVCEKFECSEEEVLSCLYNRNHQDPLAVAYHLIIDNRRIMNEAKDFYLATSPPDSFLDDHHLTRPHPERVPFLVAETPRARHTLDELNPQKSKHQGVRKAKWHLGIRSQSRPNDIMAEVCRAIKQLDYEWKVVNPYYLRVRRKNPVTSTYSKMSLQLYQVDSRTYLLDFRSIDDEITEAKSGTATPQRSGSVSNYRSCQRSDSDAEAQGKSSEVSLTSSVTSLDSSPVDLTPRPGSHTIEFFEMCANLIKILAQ

No constants are given. Whether binding was seen depends on the method and setting. In cells and extracts the contact can be indirect. Some binding calls cover weakened binding; strength is not graded here. Sequences can lack the tags named with a protein.

This test concerns the target AMPKα1 in experiments shown only in supplementary figures (endogenous or transfected not stated) (UniProt Q13131). In words: co-IP; co-IP of the AMPK complex (Fig. S4n); bait and constructs not shown; A375 cells with or without MMAE in Fig. S4o.

B1: glucosamine-phosphate N-acetyltransferase 1 (GNPNAT1) (enzyme, UniProt Q96EK6 1-184)
chain: MKPDETPMFDPSLLKEVDWSQNTATFSPAISPTHPGEGLVLRPLCTADLNRGFFKVLGQLTETGVVSPEQFMKSFEHMKKSGDYYVTVVEDVTLGQIVATATLIIEHKFIHSCAKRGRVEDVVVSDECRGKQLGKLLLSTLTLLSKKLNCYKITLECLPQNVGFYKKFGYTVSEENYMCRRFLK
Take B1: the binding entry is listed as “binds”.

B2: phosphomannose isomerase (PMI) (enzyme, UniProt P34949 1-423)
chain: MAAPRVFPLSCAVQQYAWGKMGSNSEVARLLASSDPLAQIAEDKPYAELWMGTHPRGDAKILDNRISQKTLSQWIAENQDSLGSKVKDTFNGNLPFLFKVLSVETPLSIQAHPNKELAEKLHLQAPQHYPDANHKPEMAIALTPFQGLCGFRPVEEIVTFLKKVPEFQFLIGDEAATHLKQTMSHDSQAVASSLQSCFSHLMKSEKKVVVEQLNLLVKRISQQAAAGNNMEDIFGELLLQLHQQYPGDIGCFAIYFLNLLTLKPGEAMFLEANVPHAYLKGDCVECMACSDNTVRAGLTPKFIDVPTLCEMLSYTPSSSKDRLFLPTRSQEDPYLSIYDPPVPDFTIMKTEVPGSVTEYKVLALDSASILLMVQGTVIASTPTTQTPIPLQRGGVLFIGANESVSLKLTEPKDLLIFRACCLL
Consider B2, for which the binding result is given as “binds”.
